# Experimental data: PubChem BioAssay AID1224830 (NIAID, 2016)
# Screen: 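Regulators of TLR4 signalling towards TNF-alpha in macrophage-like cells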 (primary screen)
# Cells: human THP-1 monocytic leukaemia cells, TNF dual-luciferase reporter clone, PMA-differentiated to macrophage-like cells
# Reagent: siRNA pool against human genes, 50 nM
# Duration: LPS for 4 h, given about 3 days after siRNA transfection
# Challenge: bacterial LPS (TLR4 ligand), 10 ng/ml
# Measurement: 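TNF firefly reporter luminescence divided by renilla, normalised to the plate median, then turned into a robust z-score for each replicate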
# Direction: TNF reporter robust z-score: higher = stronger TNF reporter response to LPS
# Call rule: 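a well is active when its z-score exceeds 2.8 or falls below -1.5; control wells carry no call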
# The deposit covers about 18,000 reagents; this is an unselected part. About 2,900 of all reagents (16%) were called active. 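Calls are made per well; low scores hint the gene aids the LPS response, high scores that it dampens it.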 Repeated entries: four replicate wells of each siRNA pool. No sequences are given here.
gene symbol,TNF reporter robust z-score,activity call
MARCHF8,-0.83,inactive
MARCHF8,1.33,inactive
MARCHF8,2.38,inactive
MARCHF8,1.04,inactive
ARF1,0,inactive
ARF1,-0.65,inactive
ARF1,-1.22,inactive
ARF1,-0.58,inactive
GPC2,,inactive
GPC2,-1.14,inactive
GPC2,-0.66,inactive
GPC2,-1.18,inactive
GPC2,-1.01,inactive
MRPS31,-1.03,inactive
MRPS31,-0.48,inactive
MRPS31,0.41,inactive
MRPS31,-1.29,inactive
PTPN6,-1.25,inactive
PTPN6,1.56,inactive
PTPN6,-0.23,inactive
PTPN6,-1.65,active
TTC22,0.43,inactive
TTC22,1.84,inactive
TTC22,0.22,inactive
TTC22,1.6,inactive
MKI67,0.27,inactive
MKI67,0.74,inactive
MKI67,2.08,inactive
MKI67,-0.54,inactive
ZNF436,-0.29,inactive
ZNF436,3.01,active
ZNF436,1.42,inactive
ZNF436,3.93,active
IFT81,-0.59,inactive
IFT81,-1.09,inactive
IFT81,-0.06,inactive
GLTP,0.61,inactive
GLTP,1.64,inactive
GLTP,2.64,inactive
GLTP,2.06,inactive
LYG2,-1.22,inactive
LYG2,-0.8,inactive
LYG2,-0.85,inactive
LYG2,0.02,inactive
FERMT1,-0.3,inactive
FERMT1,-0.17,inactive
FERMT1,0.23,inactive
FERMT1,-0.16,inactive

Laid out differently: results already given
gene symbol | TNF reporter robust z-score | activity call
MRPS31 | -0.48 | inactive
MRPS31 | 0.41 | inactive
MRPS31 | -1.29 | inactive
PTPN6 | -1.25 | inactive
PTPN6 | 1.56 | inactive
PTPN6 | -0.23 | inactive
